Experiment [1] addresses 3XHA-tagged full-length UTX (3XHA-UTX) (UniProt O15550). The experiment in a line: co-IP.
Experiment [2] addresses HA-tagged UTX (HA-UTX), full-length (UniProt O15550). The experiment in a line: pull-down.

By UniProt entry, the sequences of proteins in these tests, tags left out. Residues count along the entry.
UniProt O15550, whole entry: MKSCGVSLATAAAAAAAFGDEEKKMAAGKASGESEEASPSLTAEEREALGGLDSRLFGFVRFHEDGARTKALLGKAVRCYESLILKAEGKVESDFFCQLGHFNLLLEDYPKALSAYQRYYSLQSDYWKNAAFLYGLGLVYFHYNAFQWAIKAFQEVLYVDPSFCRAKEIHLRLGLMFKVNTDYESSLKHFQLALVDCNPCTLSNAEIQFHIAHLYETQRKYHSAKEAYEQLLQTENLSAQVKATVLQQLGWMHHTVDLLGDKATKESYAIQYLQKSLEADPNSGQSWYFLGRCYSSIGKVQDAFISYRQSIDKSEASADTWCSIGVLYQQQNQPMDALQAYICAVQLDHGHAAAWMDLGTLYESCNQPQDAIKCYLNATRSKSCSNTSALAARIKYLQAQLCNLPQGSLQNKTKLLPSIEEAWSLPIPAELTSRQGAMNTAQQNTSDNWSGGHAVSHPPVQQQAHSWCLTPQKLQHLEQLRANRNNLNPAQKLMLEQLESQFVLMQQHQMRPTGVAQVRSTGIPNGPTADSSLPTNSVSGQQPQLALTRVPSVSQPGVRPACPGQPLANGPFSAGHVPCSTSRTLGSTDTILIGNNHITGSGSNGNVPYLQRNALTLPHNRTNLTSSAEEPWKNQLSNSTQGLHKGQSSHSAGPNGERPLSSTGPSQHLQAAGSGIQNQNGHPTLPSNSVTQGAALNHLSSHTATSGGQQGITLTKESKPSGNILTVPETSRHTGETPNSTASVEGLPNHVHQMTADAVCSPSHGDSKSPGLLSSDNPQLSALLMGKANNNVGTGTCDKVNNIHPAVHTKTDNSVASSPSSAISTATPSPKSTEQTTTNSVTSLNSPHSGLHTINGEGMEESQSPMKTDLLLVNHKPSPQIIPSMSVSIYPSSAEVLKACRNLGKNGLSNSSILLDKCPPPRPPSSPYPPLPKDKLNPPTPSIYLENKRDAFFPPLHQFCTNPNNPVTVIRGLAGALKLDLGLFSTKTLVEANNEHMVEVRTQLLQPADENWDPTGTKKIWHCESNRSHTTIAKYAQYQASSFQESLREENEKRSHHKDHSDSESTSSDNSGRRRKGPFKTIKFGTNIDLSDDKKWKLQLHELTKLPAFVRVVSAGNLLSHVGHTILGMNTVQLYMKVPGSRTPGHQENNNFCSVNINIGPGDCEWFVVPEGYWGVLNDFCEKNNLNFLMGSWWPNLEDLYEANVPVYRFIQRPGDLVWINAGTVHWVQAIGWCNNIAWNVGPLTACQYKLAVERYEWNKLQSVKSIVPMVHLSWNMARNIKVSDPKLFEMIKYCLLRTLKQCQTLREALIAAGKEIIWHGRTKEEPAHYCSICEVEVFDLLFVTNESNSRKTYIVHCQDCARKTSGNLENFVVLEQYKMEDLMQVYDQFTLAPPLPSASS
UniProt O14686, 4507-5537: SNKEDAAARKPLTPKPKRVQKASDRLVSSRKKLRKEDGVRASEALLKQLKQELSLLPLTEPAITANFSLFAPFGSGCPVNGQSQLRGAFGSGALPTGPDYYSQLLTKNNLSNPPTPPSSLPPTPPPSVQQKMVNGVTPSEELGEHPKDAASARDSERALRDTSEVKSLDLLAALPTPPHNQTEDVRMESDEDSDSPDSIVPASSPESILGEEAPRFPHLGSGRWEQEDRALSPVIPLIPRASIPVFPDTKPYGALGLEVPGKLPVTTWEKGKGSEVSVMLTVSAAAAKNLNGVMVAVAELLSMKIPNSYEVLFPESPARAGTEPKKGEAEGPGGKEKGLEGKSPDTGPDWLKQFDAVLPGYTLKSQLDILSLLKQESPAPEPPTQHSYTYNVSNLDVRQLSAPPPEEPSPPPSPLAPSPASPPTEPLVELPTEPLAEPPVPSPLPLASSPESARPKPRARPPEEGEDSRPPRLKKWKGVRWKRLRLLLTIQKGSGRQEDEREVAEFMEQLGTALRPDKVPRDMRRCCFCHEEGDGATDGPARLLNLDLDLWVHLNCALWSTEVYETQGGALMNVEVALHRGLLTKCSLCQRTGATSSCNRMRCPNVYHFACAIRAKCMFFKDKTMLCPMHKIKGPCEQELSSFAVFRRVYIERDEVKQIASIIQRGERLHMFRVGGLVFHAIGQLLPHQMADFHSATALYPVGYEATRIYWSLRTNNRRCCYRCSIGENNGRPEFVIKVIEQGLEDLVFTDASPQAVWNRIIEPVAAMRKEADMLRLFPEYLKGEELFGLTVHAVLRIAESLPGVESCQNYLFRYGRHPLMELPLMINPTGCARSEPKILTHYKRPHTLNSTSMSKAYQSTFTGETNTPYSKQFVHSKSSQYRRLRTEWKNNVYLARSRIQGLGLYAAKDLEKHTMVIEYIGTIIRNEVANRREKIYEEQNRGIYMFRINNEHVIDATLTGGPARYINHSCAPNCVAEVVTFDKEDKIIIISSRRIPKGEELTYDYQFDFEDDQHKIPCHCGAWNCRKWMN
UniProt P09874, whole entry: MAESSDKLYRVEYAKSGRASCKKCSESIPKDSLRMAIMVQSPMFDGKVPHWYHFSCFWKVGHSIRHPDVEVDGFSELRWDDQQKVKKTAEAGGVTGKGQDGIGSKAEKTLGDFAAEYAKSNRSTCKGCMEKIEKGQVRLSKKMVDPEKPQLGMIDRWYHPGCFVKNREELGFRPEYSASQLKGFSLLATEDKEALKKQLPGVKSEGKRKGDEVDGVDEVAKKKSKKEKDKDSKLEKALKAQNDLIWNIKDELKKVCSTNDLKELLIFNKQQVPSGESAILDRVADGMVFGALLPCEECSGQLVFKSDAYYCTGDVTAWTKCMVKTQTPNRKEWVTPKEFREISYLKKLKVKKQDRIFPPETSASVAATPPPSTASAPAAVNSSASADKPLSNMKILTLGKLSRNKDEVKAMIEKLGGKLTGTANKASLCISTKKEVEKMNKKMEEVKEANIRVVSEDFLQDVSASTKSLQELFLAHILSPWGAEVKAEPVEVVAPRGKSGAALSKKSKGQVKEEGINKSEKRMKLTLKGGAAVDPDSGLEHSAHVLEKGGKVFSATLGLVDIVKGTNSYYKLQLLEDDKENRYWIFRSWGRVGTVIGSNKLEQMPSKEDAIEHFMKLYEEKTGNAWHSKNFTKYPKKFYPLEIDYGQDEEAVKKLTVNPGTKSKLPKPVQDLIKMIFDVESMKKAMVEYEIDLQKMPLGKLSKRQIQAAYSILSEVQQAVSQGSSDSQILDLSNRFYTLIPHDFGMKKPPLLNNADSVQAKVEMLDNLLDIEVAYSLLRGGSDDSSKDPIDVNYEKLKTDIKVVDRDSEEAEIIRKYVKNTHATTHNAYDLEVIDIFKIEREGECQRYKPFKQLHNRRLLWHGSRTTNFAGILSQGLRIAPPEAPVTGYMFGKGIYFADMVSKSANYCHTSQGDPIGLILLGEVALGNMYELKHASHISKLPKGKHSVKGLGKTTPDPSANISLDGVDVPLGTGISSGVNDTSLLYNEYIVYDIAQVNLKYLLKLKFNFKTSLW

These are yes or no findings as the source states them, for the method shown. For part of these data: In cells and extracts the contact can be indirect. Some binding calls cover weakened binding; strength is not graded here.

Consider “Flag-MLL4-C (C-terminal region, amino acids 4507-5537) (from UniProt O14686 4507-5537) (domain or fragment)”, for which the binding result in experiment [1] is reported as “binds”. Still for that read-out and setting: with PARP-1 (from UniProt P09874 1-1014) the entry was “binds”.

Turning to “Flag-tagged PARP-1 (F-PARP-1) (from UniProt P09874 1-1014)”, the binding result in experiment [2] is on record as “binds”.

Source of the values: paper doi:10.1101/2024.05.31.596824.
